Test: peptide synthesis
Conditions: conjugation step

## HYNIC–cHK
  conjugation yield: 56%
HPLC
  final HPLC purity: >95%
